Measurements reported in PubChem BioAssay AID652243 (Drosophila RNAi Screening Center, 2013)
Aim: 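Knock-downs that decrease or increase androgen receptor reporter signal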 (primary screen). Cells: Drosophila S2R+ cells. Reagents: long dsRNA against Drosophila genes. Duration: 72 h (48 h, then 24 h hormone). Challenge: synthetic androgen R1881 at 10 nM for 24 h. Detection: 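Per-well raw luminescence of the androgen-driven firefly reporter and of the Renilla control, two replicates each, without normalisation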. Scale: firefly reporter light: higher = more light from androgen-responsive reporter; Renilla control light: higher = more constitutive control signal (cell number, transfection). Rule for the call: 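Hit when the log firefly-to-Renilla ratio dropped or increased by a fixed fold versus the mean of GFP or LacZ controls across duplicate plates; lowering cut given as 1.5 and as 3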. Meaning of the calls: active = hit: reporter lowered or raised; inactive = no hit.
The deposit covers about 24,000 reagents; this is a random part of those that have a named target and a result. Of all reagents, 246 (1%) got an active call. 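Plates not normalised; calls are printed but the firefly/Renilla ratio behind them is not deposited; fold cut for lowering reported inconsistently.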 Raw values vary from plate to plate and are shown uncorrected. Reagents against one gene are numbered here. Names joined by + are all predicted targets of the reagent. Reagent sequences are not shown. The record does not give: the amount of reagent.

gene | dsRNA no. | firefly reporter light, replicate 1 | firefly reporter light, replicate 2 | Renilla control light, replicate 1 | Renilla control light, replicate 2 | call
ppk18 | 1 | 2.98e5 | 2.02e5 | 1.92e6 | 1.47e6 | inactive
ppk18 | 2 | 2.47e5 | 3.15e5 | 1.20e6 | 1.51e6 | inactive
CG4752 | 1 | 4.65e5 | 4.34e5 | 2.72e6 | 2.58e6 | inactive
CG4752 | 2 | 2.91e5 | 2.74e5 | 4.92e5 | 5.09e5 | inactive
UK114 | 1 | 1.73e5 | 1.91e5 | 2.28e6 | 2.44e6 | inactive
Gel | 1 | 68423 | 62231 | 3.18e5 | 3.80e5 | inactive
Gel | 2 | 4.26e5 | 2.97e5 | 5.55e5 | 5.35e5 | inactive
CG14391 | 1 | 43038 | 57240 | 9.65e5 | 1.54e6 | inactive
CG14391 | 2 | 3.85e5 | 6.29e5 | 8.51e5 | 1.16e6 | inactive
NimA | 1 | 2.23e5 | 2.74e5 | 5.99e5 | 2.95e5 | inactive
NimA | 2 | 7.42e5 | 5.34e5 | 2.36e6 | 2.45e6 | inactive
NimA | 3 | 2.13e5 | 5.62e5 | 5.61e5 | 1.22e6 | inactive
NimA | 4 | 5.35e5 | 4.54e5 | 2.35e6 | 2.22e6 | inactive
CG4287 | 1 | 77593 | 1.16e5 | 6.06e5 | 5.98e5 | inactive
CG4287 | 2 | 5.01e5 | 4.86e5 | 7.91e5 | 5.80e5 | inactive
Phae1 | 1 | 2.66e5 | 4.05e5 | 1.97e6 | 2.80e6 | inactive
VhaM9.7-a | 1 | 1.34e5 | 1.92e5 | 3.10e6 | 3.34e6 | inactive
VhaM9.7-a | 2 | 2.53e5 | 4.12e5 | 1.29e6 | 2.14e6 | inactive
TwdlJ | 1 | 2.45e5 | 2.89e5 | 2.55e6 | 2.64e6 | inactive
CG30033 | 1 | 8.60e5 | 1.05e6 | 8.23e5 | 1.14e6 | inactive
CG13360 | 1 | 7.10e5 | 1.04e6 | 1.89e6 | 2.35e6 | inactive
CG13360 | 2 | 4.53e5 | 8.26e5 | 1.09e6 | 1.79e6 | inactive
Tlk | 1 | 3.94e5 | 5.43e5 | 2.14e6 | 2.04e6 | inactive
Tlk | 2 | 2.88e5 | 5.38e5 | 5.05e5 | 8.12e5 | inactive
Tlk | 3 | 6.48e5 | 1.36e6 | 5.91e5 | 1.05e6 | inactive
Tlk | 4 | 6.80e5 | 7.54e5 | 1.21e6 | 1.35e6 | inactive
CG15083 | 1 | 1.17e5 | 1.34e5 | 1.58e6 | 1.85e6 | inactive
beta-Man | 1 | 32786 | 67483 | 2.21e5 | 2.68e5 | inactive
beta-Man | 2 | 1.53e5 | 1.22e5 | 3.94e6 | 2.78e6 | inactive
CG12546 | 1 | 54565 | 46004 | 9.11e5 | 1.13e6 | inactive
Cep290 | 1 | 59304 | 1.24e5 | 1.03e6 | 1.19e6 | inactive
Cep290 | 2 | 6.07e5 | 4.64e5 | 1.20e6 | 1.41e6 | inactive
CG5011 | 1 | 8.16e5 | 9.03e5 | 2.86e6 | 2.48e6 | inactive
CG7737 | 1 | 1.09e6 | 3.48e5 | 1.76e6 | 7.40e5 | inactive
CG14377 + CG14374 | 1 | 2.48e5 | 3.02e5 | 7.92e5 | 6.90e5 | inactive
CG2750 | 1 | 6.04e5 | 4.68e5 | 3.58e6 | 2.93e6 | inactive
CASK | 1 | 3.00e5 | 2.44e5 | 1.74e6 | 1.97e6 | inactive
CASK | 2 | 2.11e5 | 3.61e5 | 3.36e6 | 3.77e6 | inactive
CASK | 3 | 2.19e5 | 2.62e5 | 2.94e6 | 3.06e6 | inactive
CASK | 4 | 8.58e5 | 5.47e5 | 1.72e6 | 2.49e6 | inactive
CASK | 5 | 5.75e5 | 3.88e5 | 1.12e6 | 6.24e5 | inactive
CASK | 6 | – | – | – | – | inactive
jub | 1 | 7677 | 10572 | 1.13e5 | 1.86e5 | active
jub | 2 | 2.74e5 | 2.36e5 | 4.99e5 | 5.86e5 | inactive
lbl | 1 | 2.60e5 | 3.29e5 | 3.55e6 | 3.61e6 | inactive

Next part; the last 9 above are carried over.
gene | dsRNA no. | firefly reporter light, replicate 1 | firefly reporter light, replicate 2 | Renilla control light, replicate 1 | Renilla control light, replicate 2 | call
CASK | 1 | 3.00e5 | 2.44e5 | 1.74e6 | 1.97e6 | inactive
CASK | 2 | 2.11e5 | 3.61e5 | 3.36e6 | 3.77e6 | inactive
CASK | 3 | 2.19e5 | 2.62e5 | 2.94e6 | 3.06e6 | inactive
CASK | 4 | 8.58e5 | 5.47e5 | 1.72e6 | 2.49e6 | inactive
CASK | 5 | 5.75e5 | 3.88e5 | 1.12e6 | 6.24e5 | inactive
CASK | 6 | – | – | – | – | inactive
jub | 1 | 7677 | 10572 | 1.13e5 | 1.86e5 | active
jub | 2 | 2.74e5 | 2.36e5 | 4.99e5 | 5.86e5 | inactive
lbl | 1 | 2.60e5 | 3.29e5 | 3.55e6 | 3.61e6 | inactive
Nfs1 | 1 | 7.51e5 | 5.87e5 | 1.56e6 | 1.61e6 | inactive
ttk | 1 | 5.74e5 | 5.75e5 | 5.93e5 | 4.95e5 | inactive
ttk | 2 | 1.51e5 | 1.59e5 | 2.05e6 | 1.87e6 | inactive
ttk | 3 | 3.47e5 | 4.41e5 | 8.32e5 | 7.21e5 | inactive
wtrw | 1 | 42213 | 19425 | 2.69e5 | 2.52e5 | inactive
wtrw | 2 | 2.98e5 | 2.40e5 | 2.81e6 | 2.45e6 | inactive
wtrw | 3 | 4.92e5 | 3.70e5 | 1.37e6 | 1.29e6 | inactive
Dhps | 1 | 1.27e5 | 1.11e5 | 1.58e6 | 1.29e6 | inactive
mad2 | 1 | 1.38e5 | 99785 | 1.20e6 | 1.08e6 | inactive
Shal | 1 | 89985 | 1.16e5 | 2.84e5 | 2.94e5 | inactive
Shal | 2 | 2.58e5 | 2.16e5 | 2.41e6 | 2.73e6 | inactive
CG33111 | 1 | 1.40e5 | 1.71e5 | 2.03e6 | 1.88e6 | inactive
CG33111 | 2 | 1.97e5 | 1.91e5 | 3.01e6 | 1.97e6 | inactive
CG11986 | 1 | 37526 | 69297 | 3.27e5 | 3.54e5 | inactive
CG11986 | 2 | 9.02e5 | 1.04e6 | 1.03e6 | 1.12e6 | inactive
NitFhit | 1 | 83898 | 86486 | 1.55e6 | 1.85e6 | inactive
NitFhit | 2 | 7.27e5 | 4.14e5 | 2.11e6 | 1.41e6 | inactive
CG15269 | 1 | 1.12e5 | 1.03e5 | 1.17e6 | 1.46e6 | inactive
CG15269 | 2 | 9.64e5 | 7.85e5 | 9.49e5 | 8.77e5 | inactive
CG18609 | 1 | 1.04e5 | 1.17e5 | 1.44e6 | 1.67e6 | inactive
CG18609 | 2 | 2.22e5 | 2.29e5 | 5.91e5 | 7.67e5 | inactive
CG13367 | 1 | 4.84e5 | 4.36e5 | 4.44e6 | 4.02e6 | inactive
CG13367 | 2 | 2.80e5 | 3.89e5 | 3.40e6 | 3.59e6 | inactive
Brd | 1 | 3.28e5 | 2.82e5 | 2.01e6 | 2.00e6 | inactive
CG31482 | 1 | 57736 | 92239 | 1.35e6 | 1.28e6 | inactive
Pu | 1 | 8.17e5 | 7.09e5 | 1.42e6 | 1.48e6 | inactive
Pu | 2 | 5.36e5 | 5.40e5 | 1.44e6 | 1.72e6 | inactive
TTLL5 | 1 | 1.01e5 | 82464 | 5.13e5 | 5.26e5 | inactive
Nse4 | 1 | 1.63e5 | 2.42e5 | 2.29e6 | 2.15e6 | inactive
Nse4 | 2 | 3.96e5 | 6.54e5 | 8.99e5 | 1.61e6 | inactive
